Laboratory results taken from paper PMC11768370, “Etodolac Single Dose Metabolic Profile Elucidation: Pharmacokinetics and Adverse Events in Healthy Volunteers” (Pharmaceuticals, 2025).

Test system: plasma metabolites
Experiment: Untargeted plasma metabolomic profile pre-dose (T0) vs post-dose (Tmax), UPLC-QToF
Type: in vivo, human
Settings: healthy volunteers, single dose 500 mg
Method: Samples were collected at two times: (i) baseline samples (time 0 h), termed the pre-dose group, and (ii) samples at maximum drug concentration (Cmax), termed the post-dose group. Samples were randomized, and 25 μL of each was collected to form a pooled sample for quality control (QC). An aliquot of plasma (200 μL) was extracted by adding cold methanol (400 μL) for protein precipitation. The samples were then vortexed for 30 s and centrifuged at 12,879× g for 10 min at 4 °C. Finally, the supernatant (400 μL) was collected and dried over a stream of nitrogen gas (N2). Samples were resuspended with 200 µL of acetonitrile (ACN)/water (H2O) (1:1 v/v). Sample extraction and analysis were randomized to reduce instrumental and biological bias. QC samples were analyzed every 10 samples to check for variations in extraction and system stability.
The analysis was adapted and performed on an ACQUITY® FTN H Class (Waters, Newcastle, UK) liquid chromatography (UPLC) coupled to a XEVO-G2XS (QToF) quadrupole time-of-flight mass spectrometer (UPLC-QToF) (Waters, Manchester, UK) equipped with an electrospray ionization (ESI) source operated in the positive and negative ionization mode, separately. An ACQUITY UPLC ® CSH C18 column (2.1 mm × 100 mm × 1.7 µm, Waters, Newcastle, UK) was employed as a stationary phase. The mass spectrometer was operated in MSE mode (DIA, data independent analysis) with an m/z range of 50–1200 Da and an acquisition time of 0.5 s per scan. MSE analysis was operated at 6 eV for low collision energy and a ramp of 20–50 eV for high collision energy. See Supplementary Materials and Methods for more information on metabolomic analysis.
The LC-MS raw data files were processed using Progenesis™ QI v2.4 software (Non-linear Dynamics, Newcastle, UK), which allows adduct selection, peak alignment, deconvolution, and compound annotation via MSE experiments. Progenesis QI generates an intensity table of features labeled according to their nominal masses and retention times as a function of intensity. […]

SMILES: CCc1cccc2c3c([nH]c12)C(CC)(CC(=O)O)OCC3 (stereo not drawn) [Etodolac]
- palmitoylcarnitine abundance in the blood after administration: decreased in abundance
- flavin mononucleotide relative abundance post-dose (plasma): increased relative abundance
- tryptophol relative abundance change between T0 and Tmax (plasma): more than fourfold increase
